Data from US20250289837A1, “MITOCHONDRIOTROPIC HETEROARYL BENZAMIDE POTASSIUM CHANNEL KV1.3 INHIBITORS” (UNIVERZA V LJUBLJANI, priority 2022, published 2025).
Some results were stated once for a whole list of compounds, not compound by compound.

System: pancreatic cancer cell line Colo 357
Experiment: Cytotoxicity in conventional 2D cultures, Cytotox green, Incucyte live cell imaging
Format: cell-based
Details: 50 μM, 24 h, Colo 357 2D culture, FIG. 1
Procedure: FIG. 1. Cytotoxicity of the indicated compounds. Cells plated on 96-well plates were incubated in the presence of 50 μM of the indicated compounds and fluorescence of the dead-cell marker Cytotox green was monitored over time. In the Figure, fluorescence values after 24 h are reported normalized to the value obtained in the presence of DMSO. […] The symbols indicate biological replicates (with three technical replicates each).
To test the activity of the compounds on biological systems, we chose the pancreatic cancer cell line Colo 357, which expresses Kv1.3 and is sensitive to cell-permeant Kv1.3 inhibitors (Zaccagnino et al., Oncotarget 8, 38276-38293, 2017). Growth, cell viability and apoptosis were all determined by high content imaging in a Incucyte (Sartorius) live cell imaging device. Images were taken every hour for several days after addition of the compounds dissolved in DMSO (time 0) and the corresponding indicators, CytotoxGreen or CytotoxRed for cytotoxicity and the green Caspase 3/7 activity reporter for apoptosis.
The first screening for cytotoxicity was performed on conventional 2D cultures (FIG. 1).

## COc1ccccc1C(=O)NC[C@]1(c2ccsc2)CC[C@H](OC(=O)NCCC[P+](c2ccccc2)(c2ccccc2)c2ccccc2)CC1.[I-] [Example 2, (3-(((((1S,4S)-4-((2-Methoxybenzamido)methyl)-4-(thiophen-3-yl)cyclohexyl)oxy)carbonyl)amino)propyl)triphenylphosphonium iodide]
  Cytotoxicity: Cytotox green fluorescence normalized to DMSO: over 15 times
